The target of this assay is HJURP (Holliday Junction Recognition Protein) (UniProt Q8NCD3). Description: co-IP; IP of HJURP from breast cancer cell lines, SLC7A11 and FTH1 detected by Western blot. Background: Immunoblotting shows a protein as a band on a membrane.

The values that follow come from publication PMC11447182.

No constants are given. Whether binding was seen depends on the method and setting. Binding seen in cells or lysates may run through a third protein. Some results given as binding are weak or reduced against the parent protein; the word gives no strength.

As for “FTH1 (Ferritin Heavy Chain 1) (from UniProt P02794 1-183)”, the binding entry is reported as “binds”.
